PubChem BioAssay AID1508597, Cure First | 2020
This is a random part of about 2,100 reagents tested. 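Calls flag viability under 80% in either arm, not effects specific to rucaparib; the reference for percent is not stated.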 Entries without a mark were called inactive. Not given: the 100% reference.

Test: 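Survival screen with siRNA in ovarian cancer cells derived from patients, with or without rucaparib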 (primary screen)
Cell system: human ovarian carcinoma lines grown from tumours: OCI-P5x (papillary serous) and OCI-C5x (clear cell)
Knock-down reagent: siRNA pool against human genes, 1.25 pmol siRNA per well
Time to read-out: 72 h or 96 h, depending on the cell culture
Challenge: rucaparib 20 µM (about IC30) or vehicle, present until read-out
Detection: 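Luminescent ATP-based viability assay read 72 or 96 h after transfection, depending on culture, given as normalised percent viability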
Direction: viability, normalised: higher = more viable cells remaining
Call rule: 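a well counts as a hit if its normalised viability is under 80 percent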
Calls: active = viability under 80%; inactive = viability 80% or more

gene | rucaparib or vehicle | cell line | technical replicate | viability, normalised (%)
YBX1 | Rucaparib | OCI-C5x (clear cell) | 1 | 46.8 (active)
YBX1 | Rucaparib | OCI-C5x (clear cell) | 2 | 44.4 (active)
YBX1 | Rucaparib | OCI-C5x (clear cell) | 3 | 40.2 (active)
YBX1 | Rucaparib | OCI-P5x (serous) | 1 | 66 (active)
YBX1 | Rucaparib | OCI-P5x (serous) | 2 | 34.7 (active)
YBX1 | Rucaparib | OCI-P5x (serous) | 3 | 71.3 (active)
YBX1 | Vehicle | OCI-C5x (clear cell) | 1 | 54.7 (active)
YBX1 | Vehicle | OCI-C5x (clear cell) | 2 | 39.7 (active)
YBX1 | Vehicle | OCI-C5x (clear cell) | 3 | 48.7 (active)
YBX1 | Vehicle | OCI-P5x (serous) | 1 | 70.2 (active)
YBX1 | Vehicle | OCI-P5x (serous) | 2 | 66.8 (active)
YBX1 | Vehicle | OCI-P5x (serous) | 3 | 66.9 (active)
PIK3R3 | Rucaparib | OCI-C5x (clear cell) | 1 | 63.1 (active)
PIK3R3 | Rucaparib | OCI-C5x (clear cell) | 2 | 55.3 (active)
PIK3R3 | Rucaparib | OCI-C5x (clear cell) | 3 | 49.7 (active)
PIK3R3 | Rucaparib | OCI-P5x (serous) | 1 | 73.6 (active)
PIK3R3 | Rucaparib | OCI-P5x (serous) | 2 | 80.8
PIK3R3 | Rucaparib | OCI-P5x (serous) | 3 | 71.1 (active)
PIK3R3 | Vehicle | OCI-C5x (clear cell) | 1 | 50.7 (active)
PIK3R3 | Vehicle | OCI-C5x (clear cell) | 2 | 58.8 (active)
PIK3R3 | Vehicle | OCI-C5x (clear cell) | 3 | 61.8 (active)
PIK3R3 | Vehicle | OCI-P5x (serous) | 1 | 83.2
PIK3R3 | Vehicle | OCI-P5x (serous) | 2 | 75.8 (active)
PIK3R3 | Vehicle | OCI-P5x (serous) | 3 | 79.7 (active)
ZDHHC3 | Rucaparib | OCI-C5x (clear cell) | 1 | 57.5 (active)
ZDHHC3 | Rucaparib | OCI-C5x (clear cell) | 2 | 57.8 (active)
ZDHHC3 | Rucaparib | OCI-C5x (clear cell) | 3 | 37.3 (active)
ZDHHC3 | Rucaparib | OCI-P5x (serous) | 1 | 72.4 (active)
ZDHHC3 | Rucaparib | OCI-P5x (serous) | 2 | 63.5 (active)
ZDHHC3 | Rucaparib | OCI-P5x (serous) | 3 | 70.5 (active)
ZDHHC3 | Vehicle | OCI-C5x (clear cell) | 1 | 46.1 (active)
ZDHHC3 | Vehicle | OCI-C5x (clear cell) | 2 | 38.3 (active)
ZDHHC3 | Vehicle | OCI-C5x (clear cell) | 3 | 38.6 (active)
ZDHHC3 | Vehicle | OCI-P5x (serous) | 1 | 98.6
ZDHHC3 | Vehicle | OCI-P5x (serous) | 2 | 54.1 (active)
ZDHHC3 | Vehicle | OCI-P5x (serous) | 3 | 61.4 (active)

The list goes on, starting with the last 4 of the part before.
gene | rucaparib or vehicle | cell line | technical replicate | viability, normalised (%)
ZDHHC3 | Vehicle | OCI-C5x (clear cell) | 3 | 38.6 (active)
ZDHHC3 | Vehicle | OCI-P5x (serous) | 1 | 98.6
ZDHHC3 | Vehicle | OCI-P5x (serous) | 2 | 54.1 (active)
ZDHHC3 | Vehicle | OCI-P5x (serous) | 3 | 61.4 (active)
ZZZ3 | Rucaparib | OCI-C5x (clear cell) | 1 | 91.7
ZZZ3 | Rucaparib | OCI-C5x (clear cell) | 2 | 59.2 (active)
ZZZ3 | Rucaparib | OCI-C5x (clear cell) | 3 | 59.5 (active)
ZZZ3 | Rucaparib | OCI-P5x (serous) | 1 | 65.1 (active)
ZZZ3 | Rucaparib | OCI-P5x (serous) | 3 | 49.7 (active)
ZZZ3 | Vehicle | OCI-C5x (clear cell) | 1 | 57.7 (active)
ZZZ3 | Vehicle | OCI-C5x (clear cell) | 2 | 73.7 (active)
ZZZ3 | Vehicle | OCI-C5x (clear cell) | 3 | 62.8 (active)
ZZZ3 | Vehicle | OCI-P5x (serous) | 1 | 75.4 (active)
ZZZ3 | Vehicle | OCI-P5x (serous) | 2 | 84.2
ZZZ3 | Vehicle | OCI-P5x (serous) | 3 | 68.8 (active)
PHF10 | Rucaparib | OCI-C5x (clear cell) | 1 | 95.2
PHF10 | Rucaparib | OCI-C5x (clear cell) | 2 | 67.7 (active)
PHF10 | Rucaparib | OCI-C5x (clear cell) | 3 | 47.9 (active)
PHF10 | Rucaparib | OCI-P5x (serous) | 1 | 54.6 (active)
PHF10 | Rucaparib | OCI-P5x (serous) | 2 | 51.4 (active)
PHF10 | Rucaparib | OCI-P5x (serous) | 3 | 60.6 (active)
PHF10 | Vehicle | OCI-C5x (clear cell) | 1 | 59.7 (active)
PHF10 | Vehicle | OCI-C5x (clear cell) | 2 | 64.2 (active)
PHF10 | Vehicle | OCI-C5x (clear cell) | 3 | 68 (active)
PHF10 | Vehicle | OCI-P5x (serous) | 1 | 57.6 (active)
PHF10 | Vehicle | OCI-P5x (serous) | 2 | 67.1 (active)
PHF10 | Vehicle | OCI-P5x (serous) | 3 | 114
